Results: the supplement of paper PMC7666118
This is one part of the list.

By UniProt entry, the sequences of proteins in these tests, tags left out. Where a name states a change or a piece, a line headed by the entry shows the natural chain unless it says otherwise.
UniProt P42768: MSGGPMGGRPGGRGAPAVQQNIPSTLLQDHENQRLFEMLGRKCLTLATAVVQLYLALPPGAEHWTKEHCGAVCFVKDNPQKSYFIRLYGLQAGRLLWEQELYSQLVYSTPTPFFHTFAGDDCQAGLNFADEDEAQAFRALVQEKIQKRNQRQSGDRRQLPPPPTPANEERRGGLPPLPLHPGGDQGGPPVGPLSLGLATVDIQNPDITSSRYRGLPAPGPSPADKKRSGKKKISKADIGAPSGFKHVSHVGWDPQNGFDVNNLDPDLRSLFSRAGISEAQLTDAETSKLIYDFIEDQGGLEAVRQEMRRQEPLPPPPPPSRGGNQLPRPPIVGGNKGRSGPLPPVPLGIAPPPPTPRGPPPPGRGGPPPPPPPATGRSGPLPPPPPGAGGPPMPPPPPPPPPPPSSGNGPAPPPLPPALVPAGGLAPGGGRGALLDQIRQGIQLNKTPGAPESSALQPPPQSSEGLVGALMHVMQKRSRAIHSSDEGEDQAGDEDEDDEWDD
UniProt Q8NFA0: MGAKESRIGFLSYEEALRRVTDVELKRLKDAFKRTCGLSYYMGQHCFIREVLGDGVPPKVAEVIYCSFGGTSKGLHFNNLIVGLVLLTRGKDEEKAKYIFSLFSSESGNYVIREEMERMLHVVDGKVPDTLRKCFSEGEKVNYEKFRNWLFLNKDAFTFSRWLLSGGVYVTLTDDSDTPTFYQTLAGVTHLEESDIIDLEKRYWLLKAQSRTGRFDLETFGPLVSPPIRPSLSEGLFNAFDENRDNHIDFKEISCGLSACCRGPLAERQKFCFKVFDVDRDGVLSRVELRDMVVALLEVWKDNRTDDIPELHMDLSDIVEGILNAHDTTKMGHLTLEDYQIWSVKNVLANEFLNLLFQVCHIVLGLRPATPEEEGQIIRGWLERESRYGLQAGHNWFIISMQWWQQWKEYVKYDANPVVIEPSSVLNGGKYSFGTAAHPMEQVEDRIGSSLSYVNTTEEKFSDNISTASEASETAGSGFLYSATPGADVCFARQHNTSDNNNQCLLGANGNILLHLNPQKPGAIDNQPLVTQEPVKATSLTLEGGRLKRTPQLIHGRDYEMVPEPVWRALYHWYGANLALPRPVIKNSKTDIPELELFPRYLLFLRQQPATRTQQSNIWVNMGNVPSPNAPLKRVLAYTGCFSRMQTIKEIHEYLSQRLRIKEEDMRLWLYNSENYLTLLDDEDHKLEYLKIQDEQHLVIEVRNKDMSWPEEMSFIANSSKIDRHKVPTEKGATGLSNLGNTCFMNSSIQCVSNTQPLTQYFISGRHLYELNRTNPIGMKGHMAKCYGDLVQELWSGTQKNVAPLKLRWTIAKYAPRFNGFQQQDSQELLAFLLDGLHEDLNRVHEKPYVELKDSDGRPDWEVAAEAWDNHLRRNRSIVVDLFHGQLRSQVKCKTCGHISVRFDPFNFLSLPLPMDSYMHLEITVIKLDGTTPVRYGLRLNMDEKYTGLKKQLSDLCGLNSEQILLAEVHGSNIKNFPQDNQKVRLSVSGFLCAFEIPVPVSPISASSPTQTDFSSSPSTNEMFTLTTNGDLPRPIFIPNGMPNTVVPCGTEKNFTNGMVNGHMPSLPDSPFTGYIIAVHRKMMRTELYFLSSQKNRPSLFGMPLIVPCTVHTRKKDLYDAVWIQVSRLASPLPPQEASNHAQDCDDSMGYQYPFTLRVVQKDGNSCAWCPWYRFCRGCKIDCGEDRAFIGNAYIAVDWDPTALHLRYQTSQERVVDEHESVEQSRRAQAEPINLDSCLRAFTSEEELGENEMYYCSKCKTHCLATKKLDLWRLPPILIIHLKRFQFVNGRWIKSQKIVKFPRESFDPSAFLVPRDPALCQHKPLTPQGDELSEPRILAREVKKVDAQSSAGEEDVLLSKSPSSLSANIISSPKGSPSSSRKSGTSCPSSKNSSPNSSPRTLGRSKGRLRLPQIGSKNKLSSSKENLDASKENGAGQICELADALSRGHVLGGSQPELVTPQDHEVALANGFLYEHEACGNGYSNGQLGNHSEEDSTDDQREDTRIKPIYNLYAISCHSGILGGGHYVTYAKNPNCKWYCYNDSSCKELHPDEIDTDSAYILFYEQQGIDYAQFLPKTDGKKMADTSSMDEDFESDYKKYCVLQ
UniProt P51784: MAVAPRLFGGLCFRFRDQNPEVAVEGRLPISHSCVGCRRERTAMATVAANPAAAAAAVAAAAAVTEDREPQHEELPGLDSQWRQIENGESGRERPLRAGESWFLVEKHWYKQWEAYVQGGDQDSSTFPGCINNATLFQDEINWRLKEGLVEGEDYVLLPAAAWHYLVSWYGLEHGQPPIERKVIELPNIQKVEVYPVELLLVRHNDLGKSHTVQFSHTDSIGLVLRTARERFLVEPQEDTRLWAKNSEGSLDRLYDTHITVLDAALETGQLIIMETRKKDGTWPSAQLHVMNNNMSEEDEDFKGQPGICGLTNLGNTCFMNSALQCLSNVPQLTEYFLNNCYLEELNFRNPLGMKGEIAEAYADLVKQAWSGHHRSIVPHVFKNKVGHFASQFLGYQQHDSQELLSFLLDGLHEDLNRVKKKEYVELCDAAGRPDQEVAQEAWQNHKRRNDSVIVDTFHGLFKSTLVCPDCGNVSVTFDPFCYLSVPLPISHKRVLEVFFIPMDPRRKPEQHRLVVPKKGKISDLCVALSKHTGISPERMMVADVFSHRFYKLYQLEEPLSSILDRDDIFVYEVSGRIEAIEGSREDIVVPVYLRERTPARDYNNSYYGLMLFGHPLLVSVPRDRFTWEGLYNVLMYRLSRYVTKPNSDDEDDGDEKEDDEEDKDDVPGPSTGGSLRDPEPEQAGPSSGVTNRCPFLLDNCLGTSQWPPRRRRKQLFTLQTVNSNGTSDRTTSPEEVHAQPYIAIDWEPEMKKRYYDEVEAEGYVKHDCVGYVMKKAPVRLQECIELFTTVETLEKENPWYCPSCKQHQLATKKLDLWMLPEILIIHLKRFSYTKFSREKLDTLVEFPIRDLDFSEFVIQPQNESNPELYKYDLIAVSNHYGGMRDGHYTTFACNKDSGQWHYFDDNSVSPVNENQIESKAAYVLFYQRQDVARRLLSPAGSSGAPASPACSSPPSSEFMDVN
UniProt Q86UV5: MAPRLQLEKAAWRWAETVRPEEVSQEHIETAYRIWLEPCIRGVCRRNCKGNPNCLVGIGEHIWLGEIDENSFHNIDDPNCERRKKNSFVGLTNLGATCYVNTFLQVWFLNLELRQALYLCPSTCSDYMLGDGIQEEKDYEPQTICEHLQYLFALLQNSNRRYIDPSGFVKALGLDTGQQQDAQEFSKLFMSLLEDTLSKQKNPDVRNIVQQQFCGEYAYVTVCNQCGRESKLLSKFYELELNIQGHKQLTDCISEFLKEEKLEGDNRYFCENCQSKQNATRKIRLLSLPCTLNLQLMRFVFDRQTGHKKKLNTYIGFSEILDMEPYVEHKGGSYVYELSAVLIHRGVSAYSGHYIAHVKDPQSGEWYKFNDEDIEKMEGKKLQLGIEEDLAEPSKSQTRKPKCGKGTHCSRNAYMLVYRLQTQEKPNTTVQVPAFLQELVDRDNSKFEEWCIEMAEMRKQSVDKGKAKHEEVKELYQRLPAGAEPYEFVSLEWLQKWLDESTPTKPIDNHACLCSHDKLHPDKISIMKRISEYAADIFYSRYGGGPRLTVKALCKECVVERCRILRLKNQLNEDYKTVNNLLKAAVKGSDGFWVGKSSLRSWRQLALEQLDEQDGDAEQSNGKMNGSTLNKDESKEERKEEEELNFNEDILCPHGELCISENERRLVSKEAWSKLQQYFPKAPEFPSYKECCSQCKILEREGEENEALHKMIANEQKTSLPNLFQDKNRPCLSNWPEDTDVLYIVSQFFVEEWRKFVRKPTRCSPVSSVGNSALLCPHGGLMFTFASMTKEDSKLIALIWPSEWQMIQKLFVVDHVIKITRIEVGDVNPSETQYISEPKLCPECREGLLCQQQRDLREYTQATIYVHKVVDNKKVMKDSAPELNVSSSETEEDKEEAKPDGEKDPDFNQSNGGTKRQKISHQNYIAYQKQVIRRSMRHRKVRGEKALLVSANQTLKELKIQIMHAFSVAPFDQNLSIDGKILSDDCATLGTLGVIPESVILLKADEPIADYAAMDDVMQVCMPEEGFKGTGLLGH
UniProt Q9BZX2: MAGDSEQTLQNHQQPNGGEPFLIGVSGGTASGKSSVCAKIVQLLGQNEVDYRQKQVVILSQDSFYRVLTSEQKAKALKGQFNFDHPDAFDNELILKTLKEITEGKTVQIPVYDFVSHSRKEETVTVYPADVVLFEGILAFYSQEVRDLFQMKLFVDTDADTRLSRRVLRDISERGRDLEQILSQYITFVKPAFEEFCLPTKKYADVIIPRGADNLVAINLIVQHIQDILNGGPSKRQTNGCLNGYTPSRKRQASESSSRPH
UniProt Q96AJ9: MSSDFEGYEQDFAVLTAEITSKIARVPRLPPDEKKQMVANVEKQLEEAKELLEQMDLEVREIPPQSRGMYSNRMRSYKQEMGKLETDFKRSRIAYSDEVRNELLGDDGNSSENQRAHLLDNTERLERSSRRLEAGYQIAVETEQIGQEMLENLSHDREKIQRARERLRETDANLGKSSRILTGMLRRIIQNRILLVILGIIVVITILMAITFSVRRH
UniProt Q5ST30: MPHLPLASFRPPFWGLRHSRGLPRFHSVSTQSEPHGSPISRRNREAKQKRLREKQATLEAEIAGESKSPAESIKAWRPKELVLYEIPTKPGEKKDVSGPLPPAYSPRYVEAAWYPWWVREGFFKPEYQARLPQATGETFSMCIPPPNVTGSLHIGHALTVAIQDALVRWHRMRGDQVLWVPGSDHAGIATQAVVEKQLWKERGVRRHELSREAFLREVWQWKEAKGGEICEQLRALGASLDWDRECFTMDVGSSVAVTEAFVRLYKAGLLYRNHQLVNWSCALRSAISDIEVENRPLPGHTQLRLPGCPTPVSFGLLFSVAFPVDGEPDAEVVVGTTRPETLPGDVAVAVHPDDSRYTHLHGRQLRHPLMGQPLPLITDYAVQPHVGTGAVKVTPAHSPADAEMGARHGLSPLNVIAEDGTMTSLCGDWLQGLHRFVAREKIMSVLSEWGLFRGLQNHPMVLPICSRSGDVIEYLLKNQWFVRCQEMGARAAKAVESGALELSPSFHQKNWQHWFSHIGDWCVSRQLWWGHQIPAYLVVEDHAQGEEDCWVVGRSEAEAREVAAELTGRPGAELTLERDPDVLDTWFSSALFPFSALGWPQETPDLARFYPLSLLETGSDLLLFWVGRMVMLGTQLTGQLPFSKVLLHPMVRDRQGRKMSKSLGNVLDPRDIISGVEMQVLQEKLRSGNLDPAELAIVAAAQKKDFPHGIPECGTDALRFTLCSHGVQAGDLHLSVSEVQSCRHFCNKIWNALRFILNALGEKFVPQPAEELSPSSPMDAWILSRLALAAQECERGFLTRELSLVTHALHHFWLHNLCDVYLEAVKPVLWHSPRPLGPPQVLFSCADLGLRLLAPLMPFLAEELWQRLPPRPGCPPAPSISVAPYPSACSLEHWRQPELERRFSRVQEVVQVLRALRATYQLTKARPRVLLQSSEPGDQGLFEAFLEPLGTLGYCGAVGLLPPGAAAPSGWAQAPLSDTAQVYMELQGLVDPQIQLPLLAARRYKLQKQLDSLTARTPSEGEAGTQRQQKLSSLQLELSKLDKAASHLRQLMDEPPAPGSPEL
UniProt Q9NP79: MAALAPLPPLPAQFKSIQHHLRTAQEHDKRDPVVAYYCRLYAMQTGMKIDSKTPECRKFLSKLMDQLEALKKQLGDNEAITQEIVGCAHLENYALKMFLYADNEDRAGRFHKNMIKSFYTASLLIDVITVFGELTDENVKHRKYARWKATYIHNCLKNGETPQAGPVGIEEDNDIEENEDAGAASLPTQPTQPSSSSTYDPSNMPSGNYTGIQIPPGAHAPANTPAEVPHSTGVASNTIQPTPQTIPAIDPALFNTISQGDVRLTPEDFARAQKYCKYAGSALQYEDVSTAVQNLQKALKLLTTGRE
UniProt Q6PID6, whole entry: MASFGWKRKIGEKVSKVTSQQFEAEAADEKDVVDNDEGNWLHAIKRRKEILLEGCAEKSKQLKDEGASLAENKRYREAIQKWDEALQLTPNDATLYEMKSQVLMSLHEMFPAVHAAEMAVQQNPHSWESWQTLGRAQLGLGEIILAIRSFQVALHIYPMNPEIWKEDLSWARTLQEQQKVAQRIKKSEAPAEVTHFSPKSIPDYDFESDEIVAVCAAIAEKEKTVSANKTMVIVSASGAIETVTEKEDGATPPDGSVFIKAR
UniProt O14562: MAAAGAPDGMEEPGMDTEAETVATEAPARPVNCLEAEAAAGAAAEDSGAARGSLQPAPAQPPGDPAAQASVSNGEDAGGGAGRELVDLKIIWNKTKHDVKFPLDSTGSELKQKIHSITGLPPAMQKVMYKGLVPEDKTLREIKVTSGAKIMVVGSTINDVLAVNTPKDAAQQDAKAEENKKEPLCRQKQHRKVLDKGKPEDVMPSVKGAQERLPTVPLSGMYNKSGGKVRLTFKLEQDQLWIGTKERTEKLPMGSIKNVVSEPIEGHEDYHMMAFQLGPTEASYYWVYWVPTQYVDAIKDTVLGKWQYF

compound: COc1ccc(Cn2ccc3cc(C)c(C(=O)NO)cc32)cc1; assay: dose-dependent thermal stabilisation call (2D-TPP, DLPTP, 10% FDR) (binary (1 = stabilised)); higher = stabilised by the compound; conditions: system: HL-60 intact cells; concentration range 0.04-10 µM
Procedure: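 2D thermal proteome profiling in intact HL-60 cells treated with BRD-3811 (0, 0.04, 0.29, 2, 10 uM) for 90 min at 37 C, then heated 3 min at one of 12 temperatures (42-63.9 C). Soluble protein was quantified by TMT10 MS. The value is the DLPTP call of the paper: dose-dependent thermal stabilisation over all temperatures at 10% FDR (F-test of a dose-response against a flat model); one experiment, one call per tested protein.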

Target	dose-dependent thermal stabilisation call
UBR4 (UniProt Q5T4S7)	inactive: 0
WAS (UniProt P42768)	inactive: 0
VDAC2 (UniProt P45880)	inactive: 0
VANGL1 (UniProt Q8TAA9)	inactive: 0
UQCRC2 (UniProt P22695)	inactive: 0
UGCGL1 (UniProt Q9NYU2)	inactive: 0
USP32 (UniProt Q8NFA0)	inactive: 0
UNC84A (UniProt O94901)	inactive: 0
U2AF1 (UniProt Q01081)	inactive: 0
UXT (UniProt Q9UBK9)	inactive: 0
TXNL1 (UniProt O43396)	inactive: 0
UBXN1 (UniProt Q04323)	inactive: 0
USP11 (UniProt P51784)	inactive: 0
TTC39C (UniProt Q8N584)	inactive: 0
UBE2E1 (UniProt P51965)	inactive: 0
UBE4B (UniProt O95155)	inactive: 0
USP15 (UniProt Q9Y4E8)	inactive: 0
UROS (UniProt P10746)	inactive: 0

Looked up above.
Under dose-dependent thermal stabilisation call, USP15 (UniProt Q9Y4E8) is entered as inactive: 0
Under dose-dependent thermal stabilisation call, UXT (UniProt Q9UBK9) is entered as inactive: 0

Next part.

Target	dose-dependent thermal stabilisation call
TTC7A (UniProt Q9ULT0)	inactive: 0
VPS16 (UniProt Q9H269)	inactive: 0
UBE4A (UniProt Q14139)	inactive: 0
USP48 (UniProt Q86UV5)	inactive: 0
UCK2 (UniProt Q9BZX2)	inactive: 0
UBE2G2 (UniProt P60604)	inactive: 0
UBE2Z (UniProt Q9H832)	inactive: 0
VTI1A (UniProt Q96AJ9)	inactive: 0
UQCRC1 (UniProt P31930)	inactive: 0
VARS2 (UniProt Q5ST30)	inactive: 0
UBE2D2 (UniProt P62837)	inactive: 0
VTA1 (UniProt Q9NP79)	inactive: 0
VIM (UniProt P08670)	inactive: 0
UGDH (UniProt O60701)	inactive: 0
TTC33 (UniProt Q6PID6)	inactive: 0
UBFD1 (UniProt O14562)	inactive: 0
TTC37 (UniProt Q6PGP7)	inactive: 0
